Laboratory results taken from EP0665886B1 (COLD SPRING HARBOR LABORATORY, dated 2003).
No constants are given. Whether binding was seen depends on the method and setting. For part of these data: Binding seen in cells or lysates may run through a third protein. Some entries that bind do so weakly or less than the wild type. Each block holds one substance with its values, some of them ahead of it.

Chains of the proteins cited; added tags and fusions are not shown.
UniProt P30281: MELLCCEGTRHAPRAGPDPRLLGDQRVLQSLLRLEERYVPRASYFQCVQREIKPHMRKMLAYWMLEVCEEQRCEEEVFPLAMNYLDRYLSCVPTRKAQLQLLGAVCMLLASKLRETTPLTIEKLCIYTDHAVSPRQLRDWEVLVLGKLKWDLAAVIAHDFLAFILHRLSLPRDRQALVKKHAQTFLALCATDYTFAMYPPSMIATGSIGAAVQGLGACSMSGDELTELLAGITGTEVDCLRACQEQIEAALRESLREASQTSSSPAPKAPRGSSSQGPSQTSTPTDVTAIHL
UniProt P11802: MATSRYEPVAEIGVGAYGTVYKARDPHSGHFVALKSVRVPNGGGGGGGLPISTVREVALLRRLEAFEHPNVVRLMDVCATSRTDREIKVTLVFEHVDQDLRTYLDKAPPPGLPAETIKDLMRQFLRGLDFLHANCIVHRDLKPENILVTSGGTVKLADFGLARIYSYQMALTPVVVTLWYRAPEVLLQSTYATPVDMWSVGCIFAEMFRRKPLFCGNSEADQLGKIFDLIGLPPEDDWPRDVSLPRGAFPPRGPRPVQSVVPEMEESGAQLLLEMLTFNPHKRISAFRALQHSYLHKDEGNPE
UniProt P06493: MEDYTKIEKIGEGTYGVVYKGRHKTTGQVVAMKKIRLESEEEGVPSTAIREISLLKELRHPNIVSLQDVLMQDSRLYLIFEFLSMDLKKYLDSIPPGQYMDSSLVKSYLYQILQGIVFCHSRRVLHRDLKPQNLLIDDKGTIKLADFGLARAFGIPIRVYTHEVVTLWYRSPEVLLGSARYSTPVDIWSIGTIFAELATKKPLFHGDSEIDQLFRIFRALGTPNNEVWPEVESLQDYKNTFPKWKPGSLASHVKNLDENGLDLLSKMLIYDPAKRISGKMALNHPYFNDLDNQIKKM
UniProt P12004: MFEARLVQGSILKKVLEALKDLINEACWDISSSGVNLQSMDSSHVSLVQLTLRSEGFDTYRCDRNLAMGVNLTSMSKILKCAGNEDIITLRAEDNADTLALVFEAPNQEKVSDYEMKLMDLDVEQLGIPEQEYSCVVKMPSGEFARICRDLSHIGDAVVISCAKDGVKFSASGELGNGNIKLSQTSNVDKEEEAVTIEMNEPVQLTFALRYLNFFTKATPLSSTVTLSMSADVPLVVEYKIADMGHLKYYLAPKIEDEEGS
UniProt P24385: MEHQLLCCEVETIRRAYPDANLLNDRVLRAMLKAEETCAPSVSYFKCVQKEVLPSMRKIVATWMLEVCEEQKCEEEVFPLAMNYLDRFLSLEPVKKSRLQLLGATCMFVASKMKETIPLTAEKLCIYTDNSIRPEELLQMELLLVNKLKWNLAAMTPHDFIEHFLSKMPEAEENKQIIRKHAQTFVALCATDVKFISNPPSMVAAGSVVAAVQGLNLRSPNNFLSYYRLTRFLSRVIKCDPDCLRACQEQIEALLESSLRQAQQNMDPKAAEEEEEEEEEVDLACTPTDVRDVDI
UniProt P20248: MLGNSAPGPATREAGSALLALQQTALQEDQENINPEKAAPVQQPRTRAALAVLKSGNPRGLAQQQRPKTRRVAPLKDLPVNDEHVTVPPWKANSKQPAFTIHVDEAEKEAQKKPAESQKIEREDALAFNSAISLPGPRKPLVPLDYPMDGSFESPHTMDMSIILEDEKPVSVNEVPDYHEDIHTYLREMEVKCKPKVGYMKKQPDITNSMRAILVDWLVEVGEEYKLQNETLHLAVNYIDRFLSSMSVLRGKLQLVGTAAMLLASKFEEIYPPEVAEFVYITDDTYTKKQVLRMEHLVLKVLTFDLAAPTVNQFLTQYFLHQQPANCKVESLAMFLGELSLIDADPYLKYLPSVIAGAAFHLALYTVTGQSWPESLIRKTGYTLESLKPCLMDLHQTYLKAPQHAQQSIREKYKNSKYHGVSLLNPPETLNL

Tests used:
[1] = molecular target: human cyclin D3 (human) (UniProt P30281); experiment: co-immunoprecipitation and Western blot
[2] = molecular target: human CDK4 (human) (UniProt P11802); experiment: co-immunoprecipitation, V8 mapping
[3] = molecular target: human CDC2 (human) (UniProt P06493); experiment: co-immunoprecipitation of HSF43 lysate
[4] = molecular target: human CDC2 (human) (UniProt P06493); experiment: anti-cyclin A immunoprecipitation of WI38 and HSF43 lysates
[5] = molecular target: human CDC2 (human) (UniProt P06493); experiment: reciprocal co-immunoprecipitation, WI38 and VA13 lysates
[6] = molecular target: human CDC2 (human) (UniProt P06493); experiment: co-immunoprecipitation, HeLa and 293 lysates

binding [1]: binds
Substance: Proliferating Cell Nuclear Antigen, PCNA (from UniProt P12004 1-261)

binding [2]: binds
Substance: human cyclin D3 (from UniProt P30281 1-292)

binding [3]: binds
Substance: human cyclin D1 (from UniProt P24385 1-295) (other; other documents disagree on this pair)

binding [4]: binds
binding [5]: binds
binding [6]: binds
Substance: cyclin A (from UniProt P20248 1-432) (other; other documents disagree on this pair)
